These results are taken from ChEMBL document CHEMBL1154797, “Synthesis, anti-bacterial and anti-fungal activities of some novel Schiff bases containing 2,4-disubstituted thiazole ring” (2010).

≈ marks a conversion by molar mass, not a printed value.

A word on the MIC: it is the least concentration at which growth counts as inhibited. Low values mean a more susceptible organism, high ones a less susceptible organism.

What all share (assay type): functional
Experiment [1] concerns Candida albicans.
In experiment [2] the test system is Candida albicans. The experiment can be described thus: Antifungal activity against Candida albicans.
For experiment [3], the system named is Cryptococcus neoformans.
The test system of experiment [4] is Cryptococcus neoformans. Nature of the experiment: Antifungal activity against Cryptococcus neoformans.
In experiment [5] the test system is Aspergillus flavus.
Experiment [6] has as its system Aspergillus flavus. Nature of the experiment: Antifungal activity against Aspergillus flavus.
The test system of experiment [7] is Candida tropicalis.
The test system of experiment [8] is Candida tropicalis. The experiment can be described thus: Antifungal activity against Candida tropicalis.

Regarding `COc1ccc(-c2csc(NN=C3CCCCC3)n2)cc1`, the “diameter of the inhibition zone (DIZ)” value with Candida albicans [1] is recorded as 16 mm; in the experiment with Cryptococcus neoformans [3], 17 mm; in the experiment on Aspergillus flavus [5] it was 18 mm; in the experiment with Candida tropicalis [7] it was 16 mm. In addition, the MIC against Candida albicans [2], in the experiment with Cryptococcus neoformans [4], in the experiment with Aspergillus flavus [6] and in the experiment with Candida tropicalis [8] was 12.5 µg/mL (≈ 41.5 µM) each time.
